According to PMC7862700:
The list shows a part of the results. Construct or isoform of the protein are uncertain.

The sequences below were run against T1, ETS1 (UniProt P14921) (assay: DAPPL (digital affinity profiling via proximity ligation, sequencing)). Conditions: 10 mM Tris-HCl pH 7.5, 50 mM NaCl, 1 mM DTT, 4% glycerol, room temperature, 30 min; GST-TFs on glutathione beads, 16-mer random dsDNA library, 0.1% …; high values mean tight binding; double strand, one strand shown; scale: fold enrichment (6-mer frequency, TF over GST control).
T1 sequence: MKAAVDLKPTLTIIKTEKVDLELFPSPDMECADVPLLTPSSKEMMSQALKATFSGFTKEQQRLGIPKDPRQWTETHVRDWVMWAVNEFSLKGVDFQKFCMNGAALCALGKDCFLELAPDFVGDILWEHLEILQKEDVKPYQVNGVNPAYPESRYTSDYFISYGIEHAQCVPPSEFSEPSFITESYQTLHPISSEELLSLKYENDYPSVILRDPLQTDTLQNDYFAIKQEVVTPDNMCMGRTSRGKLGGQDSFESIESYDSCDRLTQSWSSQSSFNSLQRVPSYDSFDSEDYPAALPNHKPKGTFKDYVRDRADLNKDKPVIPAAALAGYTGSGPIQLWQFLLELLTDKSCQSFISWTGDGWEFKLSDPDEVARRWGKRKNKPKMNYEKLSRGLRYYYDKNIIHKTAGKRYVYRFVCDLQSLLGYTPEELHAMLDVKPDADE

| Sequence | binding signal |
| --- | --- |
| GATATG | 1.14 |
| CCCGAA | 1.41 |
| GTCTCT | 1.36 |
| GAAACT | 1.26 |
| TTCTGA | 1.27 |
| TAGTGC | 1.01 |
| ATCCTA | 1.34 |
| TATGGG | 1.18 |
| TCGTCA | 1.07 |
| TCCTTA | 1.7 |
| GGACTT | 1.03 |
| TTTCCG | 3.4 |
| TCAACA | 1.1 |
| CTCTCT | 1.58 |
| AAGTTG | 1.07 |
| CTCGGC | 1.34 |
| TCCACG | 1.09 |
| TCCCGG | 2.04 |
| CCGAAT | 1.16 |
| AATAAA | 1.27 |

| Sequence | binding signal |
| --- | --- |
| CGGAAA | 1.92 |
| TATACC | 1.2 |
| CCACTA | 1.09 |
| TCTCTC | 1.32 |
| TCTGTG | 1.13 |
| GCGGAA | 1.33 |
| GTAATG | 1.09 |
| ATAATA | 1.26 |
| TGGGTT | 1.15 |
| CACCCG | 1.14 |
| AAGTTA | 1.21 |
| CGACAT | 1.27 |
| TGGGCT | 1.39 |
| CTCCAT | 1.3 |
| AAAGGG | 1.2 |
| CTGGTC | 1.29 |
| CTATGT | 1.11 |
| TACCAT | 1.2 |
| AGATGC | 1 |
| AACCAC | 1.14 |

2 records drawn at random from those above, as already listed:

| Sequence | binding signal |
| --- | --- |
| CGACAT | 1.27 |
| TTTCCG | 3.4 |
